Data published in paper PMC3324464, “The GPI Anchor Signal Sequence Dictates the Folding and Functionality of the Als5 Adhesin from Candida albicans” (PLoS ONE, 2012).

The chains behind the UniProt entries cited, without tags or fusion partners. Where a name states a change or a piece, a line headed by the entry shows the natural chain unless it says otherwise.
UniProt Q5A8T7: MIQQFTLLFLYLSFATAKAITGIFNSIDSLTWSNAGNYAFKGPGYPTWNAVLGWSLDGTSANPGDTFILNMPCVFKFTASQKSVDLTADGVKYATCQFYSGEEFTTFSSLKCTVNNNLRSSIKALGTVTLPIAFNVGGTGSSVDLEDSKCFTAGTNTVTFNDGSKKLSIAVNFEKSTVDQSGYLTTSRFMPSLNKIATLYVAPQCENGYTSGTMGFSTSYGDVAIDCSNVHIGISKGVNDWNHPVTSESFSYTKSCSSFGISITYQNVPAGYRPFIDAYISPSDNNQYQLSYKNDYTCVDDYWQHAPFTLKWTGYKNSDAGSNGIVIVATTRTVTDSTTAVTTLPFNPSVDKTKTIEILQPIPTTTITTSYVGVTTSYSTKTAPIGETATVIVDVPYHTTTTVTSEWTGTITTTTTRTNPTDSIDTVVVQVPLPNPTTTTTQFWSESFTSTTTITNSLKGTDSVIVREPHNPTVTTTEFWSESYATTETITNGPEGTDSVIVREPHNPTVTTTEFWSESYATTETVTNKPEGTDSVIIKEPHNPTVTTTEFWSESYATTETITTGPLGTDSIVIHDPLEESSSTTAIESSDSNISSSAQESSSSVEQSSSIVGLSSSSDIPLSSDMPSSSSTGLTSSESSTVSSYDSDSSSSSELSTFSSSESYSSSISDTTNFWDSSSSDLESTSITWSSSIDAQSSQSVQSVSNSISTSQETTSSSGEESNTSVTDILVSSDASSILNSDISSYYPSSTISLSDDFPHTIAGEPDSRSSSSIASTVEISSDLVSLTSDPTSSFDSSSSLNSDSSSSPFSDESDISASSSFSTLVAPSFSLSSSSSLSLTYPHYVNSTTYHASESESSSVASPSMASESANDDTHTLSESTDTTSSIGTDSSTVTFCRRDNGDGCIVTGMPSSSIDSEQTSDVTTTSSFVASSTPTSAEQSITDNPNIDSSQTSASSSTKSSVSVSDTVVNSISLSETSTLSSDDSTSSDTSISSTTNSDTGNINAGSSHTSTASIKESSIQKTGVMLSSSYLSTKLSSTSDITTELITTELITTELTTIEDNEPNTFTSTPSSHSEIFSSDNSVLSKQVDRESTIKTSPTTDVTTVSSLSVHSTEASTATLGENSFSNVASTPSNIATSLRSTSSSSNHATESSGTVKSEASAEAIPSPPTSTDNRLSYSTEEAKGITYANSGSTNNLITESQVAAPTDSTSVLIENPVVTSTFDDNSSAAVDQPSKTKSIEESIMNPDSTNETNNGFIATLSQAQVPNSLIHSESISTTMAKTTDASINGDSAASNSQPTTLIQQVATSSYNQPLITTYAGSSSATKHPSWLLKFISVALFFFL

Target: GST-Als5-SS (Candida albicans) (UniProt Q5A8T7)
Assay: other fluorescence titration; both purified

B1: VSPIRLK (peptide)
peptide: VSPIRLK
- binding: no binding (tested: peptide up to 1.5 µM)

These are yes or no findings as the source states them, for the method shown.
